Reference: patent publication US7601743B2, “Cyano anthranilamide insecticides” (Syngenta Crop Protection, Inc., priority 2005, dated 2009)
Some results were stated once for a whole list of compounds, not compound by compound.

Columns and labels:
Format in all cases: in vivo
Heliothis virescens eggs = experiment: Activity against Heliothis virescens (application to eggs); settings: 400 ppm spray on eggs deposited on cotton, 8 days
Spodoptera littoralis = experiment: Activity against Spodoptera littoralis (sprayed soya plants); settings: 400 ppm spray on young soya plants, 1st instar, 3 days
Experimental: (§1) Young soya plants are sprayed with an aqueous emulsion spray mixture comprising 400 ppm of active ingredient and, after the spray coating has dried on, populated with 10 caterpillars (1st instar) of Spodoptera littoralis and introduced into a plastic container. 3 days later, the percentage reduction in the population and in the feeding damage (% activity) are determined by comparing the number of dead caterpillars and the feeding damage between the treated and untreated plants.

Plutella xylostella = experiment: Activity against Plutella xylostella; settings: 400 ppm spray on young cabbage plants, 3rd instar, 3 days
Experimental: as §1, with “cabbage” for “soya”, “(3rd” for “(1st”, “Plutella xylostella” for “Spodoptera littoralis”

Myzus persicae [1] = experiment: Activity against Myzus persicae (systemic application); settings: roots of infected pea seedlings placed in 400 ppm mixture, 3 and 6 days, 20°
Cydia pomonella = experiment: Activity against Cydia pomonella (sprayed diet cubes); settings: 400 ppm active ingredient sprayed on diet cubes, 1st instar, 14 days, 26° C.
[2] = system: Frankliniella occidentalis; experiment: Activity against Frankliniella occidentalis; settings: bean leaf discs (6 days) or bean plants (14 days), diluted test solutions, mixed population
[3] = system: Spodoptera littoralis (cotton leafworm); experiment: Systemic insecticide test for Spodoptera littoralis (cotton leafworm); settings: 12.5 ppm in water of maize seedlings, six days uptake, 1st instar larvae on cut leaves, four days, one replicate
Heliothis virescens = experiment: Activity against Heliothis virescens (foliar application); settings: 400 ppm spray on young soya plants, 1st instar, 6 days
Experimental: as §1, with “Heliothis virescens” for “Spodoptera littoralis”, “6” for “3”

Diabrotica balteata = experiment: Activity against Diabrotica balteata (sprayed maize seedlings); settings: 400 ppm spray on maize seedlings, 2nd instar larvae, 6 days
Experimental: Maize seedlings are sprayed with an aqueous emulsion spray mixture comprising 400 ppm of active ingredient and, after the spray coating has dried on, populated with 10 larvae (2nd instar) of Diabrotica balteata and introduced into a plastic container. 6 days later, the percentage reduction in the population (% activity) is determined by comparing the number of dead larvae between the treated and untreated plants.

Myzus persicae [4] = experiment: Activity against Myzus persicae (foliar application); settings: 400 ppm spray on infected pea seedlings, 3 and 6 days, 20°

Cc1cc(C#N)cc(C(=O)NC2(C3(C)CC3)CC2)c1NC(=O)c1cc(C(F)(F)F)nn1-c1ncccc1Cl [A.1.57]
over 80%: percentage hatching rate of the eggs and survival rate of the caterpillars (% activity) (Heliothis virescens eggs) | percentage reduction in the population and in the feeding damage (% activity) (Spodoptera littoralis) | percentage reduction in the population and in the feeding damage (% activity) (Plutella xylostella)

Cc1cc(C#N)cc(C(=O)NC2(C3CC3)CC2)c1NC(=O)c1cc(Cl)nn1-c1ncccc1Cl [A.1.4]
over 80%: percentage reduction in the population (% activity) (Myzus persicae [1]) | activity (survival rate of the caterpillars and growth regulation) (Cydia pomonella) | activity (reduction of treated population) [2] | activity (percentage of dead) [3] | percentage hatching rate of the eggs and survival rate of the caterpillars (% activity) (Heliothis virescens eggs) | percentage reduction in the population and in the feeding damage (% activity) (Heliothis virescens) | percentage reduction in the population and in the feeding damage (% activity) (Spodoptera littoralis) | percentage reduction in the population (% activity) (Diabrotica balteata) | percentage reduction in the population (% activity) (Myzus persicae [4]) | percentage reduction in the population and in the feeding damage (% activity) (Plutella xylostella)

Cc1cc(C#N)cc(C(=O)NC2(C3CC3)CC2)c1NC(=O)c1cc(OCC(F)(F)C(F)(F)F)nn1-c1ncccc1Cl [A.1.134]
over 80%: percentage reduction in the population and in the feeding damage (% activity) (Plutella xylostella)

Cc1cc(C#N)cc(C(=O)NC2(C3CC3)CC2)c1NC(=O)c1cc(OC(F)(F)C(F)C(F)(F)F)nn1-c1ncccc1Cl (centres unmarked) [A.1.131]
over 80%: activity (percentage of dead) [3] | percentage hatching rate of the eggs and survival rate of the caterpillars (% activity) (Heliothis virescens eggs) | percentage reduction in the population and in the feeding damage (% activity) (Spodoptera littoralis) | percentage reduction in the population and in the feeding damage (% activity) (Plutella xylostella)

Cc1cc(C#N)cc(C(=O)NC2(C3CC3)CC2)c1NC(=O)c1cc(C(F)(F)F)nn1-c1ncccc1Cl [A.1.1, 2-(3-Chloro-pyridin-2-yl)-5-trifluoromethyl-2H-pyrazole-3-carboxylic acid [2-(bicyclopropyl-1-ylcarbamoyl)-4-cyano-6-methyl-phenyl]-amide]
over 80%: activity (survival rate of the caterpillars and growth regulation) (Cydia pomonella) | activity (percentage of dead) [3] | percentage hatching rate of the eggs and survival rate of the caterpillars (% activity) (Heliothis virescens eggs)

CSc1cc(C(=O)Nc2c(C)cc(C#N)cc2C(=O)NC2(C3CC3)CC2)n(-c2ncccc2Cl)n1 [A.1.122]
over 80%: percentage reduction in the population (% activity) (Myzus persicae [1]) | activity (reduction of treated population) [2] | activity (percentage of dead) [3] | percentage hatching rate of the eggs and survival rate of the caterpillars (% activity) (Heliothis virescens eggs) | percentage reduction in the population and in the feeding damage (% activity) (Spodoptera littoralis) | percentage reduction in the population (% activity) (Diabrotica balteata) | percentage reduction in the population (% activity) (Myzus persicae [4]) | percentage reduction in the population and in the feeding damage (% activity) (Plutella xylostella)

Cc1cc(C#N)cc(C(=O)NC2(C3CC3)CC2)c1NC(=O)c1c(Br)c(OCC(F)(F)F)nn1-c1ncccc1Cl [B.1.28]
over 80%: activity (percentage of dead) [3] | percentage hatching rate of the eggs and survival rate of the caterpillars (% activity) (Heliothis virescens eggs) | percentage reduction in the population and in the feeding damage (% activity) (Spodoptera littoralis) | percentage reduction in the population (% activity) (Diabrotica balteata) | percentage reduction in the population and in the feeding damage (% activity) (Plutella xylostella)

Cc1cc(C#N)cc(C(=O)NC2(C3CC3)CC2)c1NC(=O)c1cc(OCC(F)(F)F)nn1-c1ncccc1Cl [A.1.13]
over 80%: activity (survival rate of the caterpillars and growth regulation) (Cydia pomonella) | activity (reduction of treated population) [2] | activity (percentage of dead) [3] | percentage hatching rate of the eggs and survival rate of the caterpillars (% activity) (Heliothis virescens eggs) | percentage reduction in the population and in the feeding damage (% activity) (Heliothis virescens) | percentage reduction in the population and in the feeding damage (% activity) (Spodoptera littoralis) | percentage reduction in the population (% activity) (Diabrotica balteata) | percentage reduction in the population (% activity) (Myzus persicae [4]) | percentage reduction in the population and in the feeding damage (% activity) (Plutella xylostella)

Cc1cc(C#N)cc(C(=O)NC2(C3CC3)CC2)c1NC(=O)c1cc(Br)nn1-c1ncccc1Cl [A.1.7]
over 80%: percentage reduction in the population (% activity) (Myzus persicae [1]) | activity (survival rate of the caterpillars and growth regulation) (Cydia pomonella) | activity (reduction of treated population) [2] | activity (percentage of dead) [3] | percentage hatching rate of the eggs and survival rate of the caterpillars (% activity) (Heliothis virescens eggs) | percentage reduction in the population and in the feeding damage (% activity) (Heliothis virescens) | percentage reduction in the population and in the feeding damage (% activity) (Spodoptera littoralis) | percentage reduction in the population (% activity) (Diabrotica balteata) | percentage reduction in the population (% activity) (Myzus persicae [4]) | percentage reduction in the population and in the feeding damage (% activity) (Plutella xylostella)
